Results deposited as PubChem BioAssay AID1259261 (Sanger Institute, 2017).

Assay: 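Kinase knock-downs that kill colorectal cancer cells or boost targeted drugs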 (primary screen)
Cell system: HCC2998 human colorectal cancer cells
Knock-down reagent: siRNA pool against human genes
Conditions: anchor drugs BYL719 1 µM, cetuximab 5 µg/ml or trametinib 10 nM, each compared with DMSO vehicle
Read-out: 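Cell viability relative to non-targeting siRNA, averaged over replicates, with robust z-score for siRNA alone and synergy scores with each anchor drug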
Reading the numbers: viability z-score, knock-down alone: higher = more viable cells than controls; viability fraction, knock-down alone: higher = more viable cells
Rule for the call: 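Essential when the siRNA-alone viability robust z-score is below -3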
Meaning of the calls: active = essential; inactive = no change
In all, the deposit lists 794 reagents; this is a part drawn at random. In the full data, 10 (1.3%) were called active. 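Calls reflect knock-down alone without drug; synergy scores with BYL719, cetuximab or trametinib do not affect calls.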 Entries without a mark were called inactive. Viability is capped at 1. Not all columns of the deposit are shown. Not stated in the record: the amount of reagent, the time to read-out.

target,"viability z-score, knock-down alone","viability fraction, knock-down alone"
TAF1 (GeneID 6872),-1.73,0.632
SLK (GeneID 9748),1.12,0.989
AXL (GeneID 558),0.519,0.914
COASY (GeneID 80347),-3.07 (active),0.464
DCLK2 (GeneID 166614),0.623,0.927
FN3K (GeneID 64122),0.0231,0.852
PHKA1 (GeneID 5255),-0.8,0.749
ADCK1 (GeneID 57143),-0.315,0.809
PRKDC (GeneID 5591),-0.701,0.761
NRAS (GeneID 4893),-0.0955,0.837
CAMKV (GeneID 79012),0.742,0.942
MOS (GeneID 4342),1.21,1
WHR1 (GeneID 8859),1.21,1
IP6K3 (GeneID 117283),-0.452,0.792
JAK3 (GeneID 3718),1.21,1
PFKFB2 (GeneID 5208),0.208,0.875
MAP3K12 (GeneID 7786),0.436,0.904
ZAP70 (GeneID 7535),-1.5,0.661
SYNCRIP (GeneID 10492),-1.11,0.71
RUNX1 (GeneID 861),0.238,0.879
ATR (GeneID 545),-1.1,0.711
MSR1 (GeneID 4481),-1.03,0.719
ABL2 (GeneID 27),0.198,0.874
STK38L (GeneID 23012),0.764,0.945
NEK3 (GeneID 4752),0.578,0.921
ANKK1 (GeneID 255239),-1.45,0.667
PTK2 (GeneID 5747),-1.17,0.702
SIK1 (GeneID 150094),-0.312,0.81
VRK2 (GeneID 7444),-0.133,0.832
RBM10 (GeneID 8241),-3.01 (active),0.472
TSKS (GeneID 60385),0.139,0.866
AK3 (GeneID 50808),0.906,0.962
PIP5KL1 (GeneID 138429),1.21,1
DYRK3 (GeneID 8444),0.417,0.901
RPS6KA5 (GeneID 9252),-0.824,0.746
HASPIN (GeneID 83903),-1.79,0.624
SPHK2 (GeneID 56848),-0.308,0.81
RTN4 (GeneID 57142),0.565,0.92
MPP1 (GeneID 4354),0.609,0.925
CDKN1B (GeneID 1027),1.15,0.994
GTF2H1 (GeneID 2965),-1.85,0.617
DGKD (GeneID 8527),0.508,0.913
BMX (GeneID 660),-0.0853,0.838
ZC3H11A (GeneID 9877),-1.39,0.675
PRKD2 (GeneID 25865),0.733,0.941
AK4 (GeneID 205),0.31,0.888
PAPSS2 (GeneID 9060),0.694,0.936
EGFR (GeneID 1956),-0.0177,0.847
MAP3K6 (GeneID 9064),1.1,0.987
PRKAG1 (GeneID 5571),0.442,0.904
CDC73 (GeneID 79577),-1.97,0.602
PRKCB (GeneID 5579),-1.16,0.703
STK32C (GeneID 282974),1.17,0.996
LIMK1 (GeneID 3984),-0.0484,0.843
RPS6KA6 (GeneID 27330),1.19,0.998
CMPK1 (GeneID 51727),0.483,0.909
MAPK1 (GeneID 5594),0.335,0.891
MAP2K6 (GeneID 5608),0.55,0.918
INSR (GeneID 3643),0.0137,0.851
PKN2 (GeneID 5586),1.21,1
EPHA7 (GeneID 2045),-1.32,0.684
SMAD4 (GeneID 4089),-0.045,0.843
HCK (GeneID 3055),1.21,1
